Laboratory results reported in PubChem BioAssay AID504467 (National Center for Advancing Translational Sciences (NCATS), 2011).
Hit rate of the full screen: of about 330,000 compounds, about 7,700 (2.3%) were called active. The shares of active, inactive and inconclusive entries below differ from those in the screen. Calls come from the whole dose curve; as a rule, active = well fitted inhibition curve with a large enough effect; inconclusive = small, poorly fitted or top-dose-only effect, or effect the other way; inactive = flat fitted curve, though single readings scatter. Where the call is inconclusive, the potency comes from a doubtful curve fit.

Assay: qHTS screen for small molecules that inhibit ELG1-dependent DNA repair in human embryonic kidney (HEK293T) cells expressing luciferase-tagged ELG1; note: nearly all actives have a fitted effect of over 55% in size
Details: HEK293T ELG1-luciferase reporter, luminescence, 16 h, DNA damage induced by 5-fluorouridine; activity change, negative = inhibition: at 46.1 µM (top of the series)
In short: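 In this reporter screen, reduction of luminescence relative to DMSO vehicle indicated activity. Compounds and 5-fluorouridine were added together to 2,000 cells per well, incubated for 16 hr at 37 °C, then developed with ONE-Glo.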
% is set by controls: 0 for no effect and ±100 for the full control effect; potency is the fitted concentration of half-maximal effect.

| SMILES | Potency | activity change, negative = inhibition |
| --- | --- | --- |
| O=C(COc1coc(CN2CCN(c3ccccc3)CC2)cc1=O)Nc1ccc(F)cc1 | inactive |  |
| COc1cccc(CNC(=O)COC(=O)C2CC3CCCC(C2)C3=O)c1 (configuration not stated) | inactive |  |
| O=C(NCCN1CCOCC1)/C(=C/c1ccc(F)cc1)NC(=O)c1ccccc1 | inconclusive: 7.3 µM [activator, partial curve, poor fit] |  |
| O=C1c2ccccc2C(=O)N1CCc1nc(-c2ccccn2)no1 | inconclusive: 12.6 µM [activator, partial curve] |  |
| CCOc1ccc(/C=N/NC(=O)c2cc3ccccc3cc2OC)cc1 | inconclusive: 32.6 µM [inhibitor, partial curve, poor fit] |  |
| Cc1ccc(C2C(C(=O)c3cc4ccccc4o3)=C(O)C(=O)N2CCN2CCOCC2)o1 (configuration not stated) | inconclusive: 29.1 µM [activator, single point] |  |
| O=C(Nc1ccccc1N1CCOCC1)c1cnccn1 | inactive |  |
| CCc1ccc(C(=O)CSc2ncn[nH]2)cc1 | inconclusive: 20.6 µM [activator, partial curve] |  |
| CCOc1ccc(NC(=S)N2CCc3cc(OC)c(OC)cc3C2COc2ccc3c(C)cc(=O)oc3c2)cc1 (configuration not stated) | inconclusive: 0.82 µM [inhibitor, full curve] |  |
| CS(=O)(=O)c1ccccc1-c1nnc(NC(=O)CCS(=O)(=O)c2ccc(Cl)cc2)o1 | inconclusive: 0.259 µM [inhibitor, single point] |  |
| Cc1cc2nc(C3CCCN(C(=S)Nc4ccccc4C)C3)[nH]c2cc1C (configuration not stated) | inconclusive: 5.8 µM [activator, partial curve, poor fit] |  |
| CCOC(=O)C1CCCN(C(=O)c2cc(-c3ccc(C)cc3)nc3ccccc23)C1 (configuration not stated) | inconclusive: 29.1 µM [inhibitor, single point] |  |
| O=S(=O)(c1ccccc1)C(/C=N\O)/C=C/c1ccccc1 (configuration not stated) | inactive |  |
| O=C(Nc1cccc(F)c1)Nc1ccnn1C1CCN(C(=O)c2cscn2)CC1 | inconclusive: 20.6 µM [activator, single point] |  |
| O=C(Nc1ccccc1)N1CCc2ccccc21 | inconclusive: 4.11 µM [activator, partial curve] |  |
| O=C(c1cccc(C(F)(F)F)c1)C1CCCN(Cc2cccc(OCCO)c2)C1 (configuration not stated) | inactive |  |
| CN(C)c1ccc(C(CNC(=O)c2ccc(F)cc2)c2c[nH]c3ccccc23)cc1 (configuration not stated) | inconclusive: 32.6 µM [inhibitor, single point] |  |
| COCCNC(=O)c1c(N)n(CCCn2ccnc2)c2nc3ccccc3nc12 | inconclusive: 3.66 µM [inhibitor, partial curve] |  |
| COc1ccc(C(=O)COC(=O)c2n[nH]c3ccccc23)c(OC)c1 | inconclusive: 9.2 µM [activator, partial curve] |  |
| C[N+](C)(CC#Cc1ccccc1)CC(=O)c1ccccc1 | inactive |  |
| O=C(CSc1cccc[n+]1[O-])c1ccccc1Br | inconclusive: 23.1 µM [activator, single point] |  |
| CS(=O)(=O)N1CC2CCCN2c2ccc(C(F)(F)F)cc21 (configuration not stated) | inactive |  |
| Cc1ccc(SC(C)C(=O)NC2CC2)cc1 (configuration not stated) | inactive |  |
| CCC(=O)Nc1cccc(-c2cnc3ccccc3n2)c1 | inconclusive: 5.17 µM [activator, full curve] |  |

| SMILES | Potency | activity change, negative = inhibition |
| --- | --- | --- |
| O=C1CC(/C=C/c2ccccn2)=Nc2ccccc2N1 | inconclusive: 29.1 µM [inhibitor, single point] |  |
| Cc1ccc(-c2cc(C(F)(F)F)n3nc(C(=O)NCCCn4ccnc4)cc3n2)cc1C | inconclusive: 1.64 µM [inhibitor, partial curve, poor fit] |  |
| CC(O)CNc1nc2ccccc2n1-c1ncnc2sc3c(c12)CCC3 (configuration not stated) | inconclusive: 18.4 µM [inhibitor, partial curve, poor fit] |  |
| COc1ccccc1N(CC(=O)NCCSCc1ccccc1Cl)S(C)(=O)=O | inconclusive: 25.9 µM [inhibitor, single point] |  |
| COc1ccc(CN(C)C2c3ccccc3-c3ccccc32)cc1 | inconclusive: 46.1 µM [inhibitor, single point] |  |
| C=CCCCCCCCCc1nc(SCC(=O)O)n[nH]1 | inactive |  |
| Cc1cccc(C(=O)Nc2nnc(-c3ccncc3)o2)c1 | inconclusive: 18.3 µM [inhibitor, single point] |  |
| COc1ccc(Nc2cc(Sc3ccc(OC)cc3)ncn2)cc1 | inconclusive: 9.2 µM [inhibitor, partial curve] |  |
| Cc1cccc(NC(=O)c2cc(S(=O)(=O)c3ccccc3)ccc2Cl)c1 | inconclusive: 23.1 µM [inhibitor, partial curve] |  |
| CCCCN1C(=O)C(=O)N(CC(=O)Nc2sc(CC)cc2C(=O)OCC)C1=O | inactive |  |
| O=C(CCN1C(=O)/C(=C\c2ccccc2)SC1=S)NCCCN1CCOCC1 | inconclusive: 13 µM [inhibitor, partial curve, poor fit] |  |
| Cc1ccc(-c2cc(C(=O)N/N=C/c3ccco3)n[nH]2)s1 | inactive |  |
| CC1CCCCC1NC(=O)COc1ccc(C#N)cc1 (configuration not stated) | inconclusive: 29.1 µM [inhibitor, single point] |  |
| COc1cc(C)ccc1OCC(=O)OCC(=O)NCC1CCCCC1 | inactive |  |
| CCCCOC(=O)Nc1ccc(C)c(Cl)c1 | inconclusive: 14.6 µM [activator, partial curve] |  |
| CC(C)CC1NC(=S)N(C2CCCCC2)C1=O (configuration not stated) | inactive |  |
| COc1cnc(-c2ccccn2)nc1Sc1ccc(Cl)cc1 | active: 0.366 µM |  |
| O=C(NCC(c1cccs1)N1CCOCC1)c1ccco1 (configuration not stated) | inconclusive: 20.6 µM [inhibitor, partial curve, poor fit] |  |
| NCCC(=O)NC[C@H]1O[C@@H](n2cnc3c(N)ncnc32)[C@H](O)[C@@H]1O | inconclusive: 29.1 µM [activator, single point] |  |
| Cc1cc(C)c(C(=O)CC(=O)c2ccccc2Cl)c(O)c1 | inactive |  |
| COC(=O)C1=CN(C(C)C)C=C(C(=O)OC)C1c1cc(Br)c(OC)c(OC)c1 | inconclusive: 16.4 µM [activator, partial curve] |  |
| Cc1ccc(N=Cc2c(O)[nH]c3ccccc23)c([N+](=O)[O-])c1 | inconclusive: 2.31 µM [activator, full curve] |  |
| Cc1cc(Cl)ccc1C(=O)C1CCCN(C(=O)c2snnc2C)C1 (configuration not stated) | inactive |  |
| CCc1ccc(CNC(=O)C2CCCN(S(=O)(=O)N(CC)c3ccccc3)C2)cc1 (configuration not stated) | inactive |  |

Reprinted at random: three compounds from above, in no set order.

| SMILES | Potency | activity change, negative = inhibition |
| --- | --- | --- |
| NCCC(=O)NC[C@H]1O[C@@H](n2cnc3c(N)ncnc32)[C@H](O)[C@@H]1O | inconclusive: 29.1 µM [activator, single point] |  |
| O=C(Nc1ccccc1)N1CCc2ccccc21 | inconclusive: 4.11 µM [activator, partial curve] |  |
| Cc1ccc(-c2cc(C(=O)N/N=C/c3ccco3)n[nH]2)s1 | inactive |  |

Next part.

| SMILES | Potency | activity change, negative = inhibition |
| --- | --- | --- |
| CCC(=O)Nc1ccc(C(=O)Nc2cccc(OC)c2)cc1 | inconclusive: 9.2 µM [activator, partial curve] |  |
| COc1ccc(Br)cc1/C=N/n1c(C)nnc1C | inconclusive: 14.6 µM [activator, partial curve, poor fit] |  |
| O=C(CC(SCCO)c1ccc([N+](=O)[O-])cc1)c1ccco1 (configuration not stated) | inconclusive: 23.1 µM [activator, single point] |  |
| CCc1cc(=O)oc2cc(C)cc(OCC(=O)N[C@@H](CSCc3ccccc3)C(=O)O)c12 | inconclusive: 4.11 µM [activator, single point] |  |
| COc1ccccc1CNC(=O)COC(=O)c1ccc(C)c(S(=O)(=O)N2CCOCC2)c1 | inactive |  |
| CC(C)[C@H](N)C(=O)OCCOCn1cnc2c(=O)[nH]c(N)nc21 | inactive |  |
| O=C(Cc1ccccc1)Nc1nccs1 | inactive |  |
| CN(C1CCCCC1)S(=O)(=O)c1ccc(C(=O)N2CCN(c3nc4ccccc4s3)CC2)cc1 | active: 9.2 µM |  |
| COc1cccc(OCc2cc(/C=N/NC(=O)c3ccn[nH]3)ccc2OC)c1 | inactive |  |
| OCc1ccccc1OCCOc1ccc(Cl)c2cccnc12 | inconclusive: 9.2 µM [activator, single point] |  |
| COc1ccc2[nH]c(C)c(CCNC(=S)Nc3cccc(C)c3C)c2c1 | inconclusive: 32.6 µM [inhibitor, partial curve, poor fit] |  |
| O=C(CCN1C(=O)C2C3C=CC(C3)C2C1=O)N1CCN(c2ccc([N+](=O)[O-])cc2)CC1 (configuration not stated) | inconclusive: 18.3 µM [inhibitor, single point] |  |
| CC1(C)CC(=O)C(N=Nc2ccc(-c3ccccc3)cc2)=C(O)C1 | inconclusive: 29.1 µM [activator, single point] |  |
| CSC(=CC(=O)c1ccccc1)SC | inconclusive: 17.8 µM [activator, single point] |  |
| Cc1ccc(NC(=O)c2ccc(S(=O)(=O)NCc3cccnc3)cc2)c(C)c1 | inconclusive: 29.1 µM [inhibitor, single point] |  |
| Cc1cc(NCCC(C)C)n2nc(C)c(-c3ccccc3)c2n1 | inconclusive: 18.4 µM [inhibitor, partial curve, poor fit] |  |
| N#Cc1cn(Cc2ccccc2)c(=O)[nH]c1=O | inactive |  |
| Cc1cc(=O)oc2ccc(OCc3ccccc3)cc12 | inconclusive: 20.6 µM [activator, partial curve] |  |
| Fc1ccccc1/C=C/c1ccc2ccccc2n1 | inconclusive: 0.461 µM [activator, full curve] |  |
| Nc1n[nH]c2cccc(Cl)c12 | inactive |  |
| O=C(C1CCN(S(=O)(=O)c2ccccc2)CC1)N1CCN(c2ccccc2)CC1 | inactive |  |
| CCn1c(=O)n(CC)c2cc(N3CCCC3)c(NC(=O)c3cc(Br)ccc3OC)cc21 | inconclusive: 14.6 µM [inhibitor, partial curve] |  |
| Cc1ccc(C(=O)NCCC2=CCCCC2)cc1S(=O)(=O)N1CCOCC1 | inconclusive: 14.6 µM [activator, single point] |  |
| COc1ccc(CCCc2n[nH]c(=S)o2)cc1C |  | inconclusive: 52.8% [activator] |
